Results reported in article PMC10830871.
No constants are given. Whether binding was seen depends on the method and setting. For part of these data: Binding seen in cells or lysates may run through a third protein. Some entries that bind do so weakly or less than the wild type. Blank lines part the entries; values can stand above or below the substance they belong to.

The chains behind the UniProt entries cited, without tags or fusion partners. Where a name states a change or a piece, a line headed by the entry shows the natural chain unless it says otherwise. A line that says so, or that is headed by a name, gives the form on record, which may keep a tag or linker.
UniProt Q13619: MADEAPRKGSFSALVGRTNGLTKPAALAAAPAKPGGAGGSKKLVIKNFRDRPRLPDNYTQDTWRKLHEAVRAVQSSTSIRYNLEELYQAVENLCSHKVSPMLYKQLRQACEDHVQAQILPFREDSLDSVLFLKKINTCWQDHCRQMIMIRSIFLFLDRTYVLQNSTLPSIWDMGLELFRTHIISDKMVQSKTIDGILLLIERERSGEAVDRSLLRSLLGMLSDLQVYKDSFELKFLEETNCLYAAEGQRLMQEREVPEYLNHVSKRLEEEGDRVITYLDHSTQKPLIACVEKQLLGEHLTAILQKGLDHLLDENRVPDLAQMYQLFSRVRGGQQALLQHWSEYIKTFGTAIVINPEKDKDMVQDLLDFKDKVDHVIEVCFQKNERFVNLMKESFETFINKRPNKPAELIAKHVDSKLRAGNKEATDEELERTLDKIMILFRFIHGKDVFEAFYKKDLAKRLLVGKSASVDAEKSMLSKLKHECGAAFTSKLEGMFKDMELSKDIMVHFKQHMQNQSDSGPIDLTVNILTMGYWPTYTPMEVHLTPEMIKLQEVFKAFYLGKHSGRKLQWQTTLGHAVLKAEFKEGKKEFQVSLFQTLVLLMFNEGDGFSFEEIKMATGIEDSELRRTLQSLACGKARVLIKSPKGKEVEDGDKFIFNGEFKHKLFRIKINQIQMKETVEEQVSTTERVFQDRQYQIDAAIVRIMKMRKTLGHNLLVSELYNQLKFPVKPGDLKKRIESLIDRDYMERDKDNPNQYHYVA
UniProt Q99873: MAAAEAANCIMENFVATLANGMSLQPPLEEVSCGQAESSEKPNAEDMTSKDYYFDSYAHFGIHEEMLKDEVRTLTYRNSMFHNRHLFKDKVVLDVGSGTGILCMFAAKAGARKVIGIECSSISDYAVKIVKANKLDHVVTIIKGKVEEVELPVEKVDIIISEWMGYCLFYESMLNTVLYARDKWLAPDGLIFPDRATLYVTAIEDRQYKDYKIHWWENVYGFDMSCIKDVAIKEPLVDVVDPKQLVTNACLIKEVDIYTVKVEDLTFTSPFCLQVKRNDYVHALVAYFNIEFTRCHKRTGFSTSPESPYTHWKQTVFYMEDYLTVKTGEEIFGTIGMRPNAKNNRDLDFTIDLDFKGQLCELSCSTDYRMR
UniProt Q96LA8: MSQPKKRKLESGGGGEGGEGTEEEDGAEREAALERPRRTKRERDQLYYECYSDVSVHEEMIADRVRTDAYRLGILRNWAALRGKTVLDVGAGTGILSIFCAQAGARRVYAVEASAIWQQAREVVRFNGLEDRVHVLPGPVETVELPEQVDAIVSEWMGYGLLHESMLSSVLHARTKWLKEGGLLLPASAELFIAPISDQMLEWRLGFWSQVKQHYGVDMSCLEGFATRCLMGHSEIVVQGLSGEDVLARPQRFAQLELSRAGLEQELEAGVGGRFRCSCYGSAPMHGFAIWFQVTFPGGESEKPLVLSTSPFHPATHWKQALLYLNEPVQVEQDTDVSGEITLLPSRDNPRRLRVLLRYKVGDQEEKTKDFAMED
UniProt Q12905: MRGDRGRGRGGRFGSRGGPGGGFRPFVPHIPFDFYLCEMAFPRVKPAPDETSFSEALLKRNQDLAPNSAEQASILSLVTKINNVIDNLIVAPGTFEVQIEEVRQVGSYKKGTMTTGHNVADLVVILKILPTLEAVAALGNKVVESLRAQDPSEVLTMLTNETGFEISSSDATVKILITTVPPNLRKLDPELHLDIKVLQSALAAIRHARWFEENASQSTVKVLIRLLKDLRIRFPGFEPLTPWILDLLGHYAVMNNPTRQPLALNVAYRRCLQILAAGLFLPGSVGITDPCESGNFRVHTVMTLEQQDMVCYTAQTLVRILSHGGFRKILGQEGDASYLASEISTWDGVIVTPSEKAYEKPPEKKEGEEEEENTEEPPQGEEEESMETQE
FLAG-ILF2^R2/5/7/9K (Q12905, form named): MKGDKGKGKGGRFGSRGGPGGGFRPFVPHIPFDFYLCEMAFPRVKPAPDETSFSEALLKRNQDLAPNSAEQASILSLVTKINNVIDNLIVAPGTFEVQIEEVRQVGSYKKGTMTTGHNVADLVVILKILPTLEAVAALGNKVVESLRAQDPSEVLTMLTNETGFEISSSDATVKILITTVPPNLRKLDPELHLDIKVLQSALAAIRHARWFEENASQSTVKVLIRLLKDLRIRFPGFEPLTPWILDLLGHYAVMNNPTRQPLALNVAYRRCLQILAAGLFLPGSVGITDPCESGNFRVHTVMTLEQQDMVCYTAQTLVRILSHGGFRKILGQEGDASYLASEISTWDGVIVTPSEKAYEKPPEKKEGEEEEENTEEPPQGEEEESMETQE

Experiments:
HA-CUL4A = HA-CUL4A (UniProt Q13619); assay: co-IP; H1299 cells co-transfected with FLAG-ILF2 or FLAG-ILF2^R2/5/7/9K and HA-CUL4A; anti-HA immunoprecipitation, anti-HA or anti-FLAG immunoblotting
His-PRMT1 (human) = His-PRMT1 (human) (UniProt Q99873); assay: pull-down; His-PRMT1 incubated with GST-PRMT6; Ni-NTA pulldown, anti-PRMT6 or anti-PRMT1 immunoblotting; both purified
FLAG-CUL4A = FLAG-CUL4A (UniProt Q13619); assay: co-IP; H1299, PRMT1 KO or PRMT6 KO cells co-transfected with FLAG-CUL4A and HA-ILF2; anti-FLAG immunoprecipitation, anti-FLAG or anti-HA immunoblotting
FLAG-PRMT6 (human) [1] = molecular target: FLAG-PRMT6 (human) (UniProt Q96LA8); assay: co-IP; anti-FLAG immunoprecipitation (anti-FLAG M2 affinity gel) of extracts of transfected H1299 cells in NP-40 lysis buffer (150 mM NaCl, 50 mM Tris-HCl pH 8, 1% NP-40), 4°C overnight; immunoblotting
GST-PRMT6 (human) [2] = molecular target: GST-PRMT6 (human) (UniProt Q96LA8); assay: pull-down; GST fusion protein (or GST) incubated with cell extracts containing the HA-tagged protein in the presence of TAT (20 μM) or TAT-1/6i (20 μM); GST pulldown, anti-HA or anti-GST immunoblotting; only the target purified
GST-PRMT6 (human) [3] = molecular target: GST-PRMT6 (human) (UniProt Q96LA8); assay: pull-down; GST or GST-PRMT6 incubated with His-PRMT1; GST pulldown, anti-PRMT1 or anti-GST immunoblotting; both purified
YFPn-FLAG-PRMT6 (human) = YFPn-FLAG-PRMT6 (human) (UniProt Q96LA8); assay: split reporter; BiFC: YFPn and YFPc fusions co-transfected in H1299 cells; YFP signal by fluorescence microscopy
YFPc-HA-PRMT6 (human) = YFPc-HA-PRMT6 (human) (UniProt Q96LA8); assay: as above
FLAG-PRMT6 (human) [4] = molecular target: FLAG-PRMT6 (human) (UniProt Q96LA8); assay: co-IP; anti-FLAG immunoprecipitation of extracts of H1299 PRMT6 KO or PRMT1 KO cells expressing the FLAG-tagged bait; NP-40 lysis buffer; immunoblotting
FLAG-PRMT1 (human) [5] = molecular target: FLAG-PRMT1 (human) (UniProt Q99873); assay: as above
FLAG-PRMT1 (human) [6] = molecular target: FLAG-PRMT1 (human) (UniProt Q99873); assay: co-IP; anti-FLAG immunoprecipitation (anti-FLAG M2 affinity gel) of extracts of transfected H1299 cells in NP-40 lysis buffer (150 mM NaCl, 50 mM Tris-HCl pH 8, 1% NP-40), 4°C overnight; immunoblotting
FLAG-ILF2 (human) [7] = molecular target: FLAG-ILF2 (human) (UniProt Q12905); assay: co-IP; anti-FLAG immunoprecipitation of extracts of H1299 PRMT6 KO or PRMT1 KO cells expressing the FLAG-tagged bait; NP-40 lysis buffer; immunoblotting
FLAG-ILF2 (human) [8] = molecular target: FLAG-ILF2 (human) (UniProt Q12905); assay: co-IP; anti-FLAG immunoprecipitation (anti-FLAG M2 affinity gel) of extracts of transfected H1299 cells in NP-40 lysis buffer (150 mM NaCl, 50 mM Tris-HCl pH 8, 1% NP-40), 4°C overnight; immunoblotting
[9] = molecular target: endogenous PRMT6 (human (endogenous in H1299)) (UniProt Q96LA8); assay: co-IP; anti-PRMT6 immunoprecipitation of extracts of H1299 or PRMT1 KO cells; anti-PRMT1 or anti-PRMT6 immunoblotting; endogenous proteins

- binding (HA-CUL4A): binds
Substance: FLAG-ILF2^R2/5/7/9K (from UniProt Q12905 1-390)

- binding (His-PRMT1 (human)): binds
Substance: GST-PRMT6 (from UniProt Q96LA8 1-375) (enzyme)

- binding (FLAG-CUL4A): binds
Substance: HA-ILF2 (from UniProt Q12905 1-390)

- binding (FLAG-PRMT6 (human) [1]): binds
Substance: HA-PRMT1 (from UniProt Q99873 1-371) (enzyme)

- binding (GST-PRMT6 (human) [2]): binds
Substance: HA-PRMT6 (from UniProt Q96LA8 1-375) (enzyme)

- binding (GST-PRMT6 (human) [3]): binds
Substance: His-PRMT1 (from UniProt Q99873 1-371) (enzyme)

- binding (YFPn-FLAG-PRMT6 (human)): binds
Substance: YFPc-HA-PRMT1 (from UniProt Q99873 1-371) (enzyme)

- binding (YFPc-HA-PRMT6 (human)): binds
Substance: YFPn-FLAG-PRMT6 (from UniProt Q96LA8 1-375) (enzyme)

- binding (FLAG-PRMT6 (human) [4]): binds weakly
- binding (FLAG-PRMT1 (human) [5]): binds weakly
- binding (FLAG-PRMT6 (human) [1]): binds
- binding (FLAG-PRMT1 (human) [6]): binds
Substance: endogenous ILF2 (from UniProt Q12905 1-390)

- binding (FLAG-ILF2 (human) [7]): binds weakly
- binding (FLAG-ILF2 (human) [8]): binds
- binding (FLAG-PRMT6 (human) [1]): binds
- binding [9]: binds
Substance: endogenous PRMT1 (from UniProt Q99873 1-371) (enzyme)

- binding (FLAG-ILF2 (human) [7]): binds weakly
- binding (FLAG-ILF2 (human) [8]): binds
Substance: endogenous PRMT6 (from UniProt Q96LA8 1-375) (enzyme)
